Reference: paper PMC7465474, “Interplay of Structural Disorder and Short Binding Elements in the Cellular Chaperone Function of Plant Dehydrin ERD14” (Cells, 2020)

Biological target: T1, Early Response to Dehydration 14 (ERD14) of A. thaliana, wild type, biotinylated in the cell (A. thaliana) (UniProt P42763)
T1 sequence (chain, biotin (in-cell biotinylation)): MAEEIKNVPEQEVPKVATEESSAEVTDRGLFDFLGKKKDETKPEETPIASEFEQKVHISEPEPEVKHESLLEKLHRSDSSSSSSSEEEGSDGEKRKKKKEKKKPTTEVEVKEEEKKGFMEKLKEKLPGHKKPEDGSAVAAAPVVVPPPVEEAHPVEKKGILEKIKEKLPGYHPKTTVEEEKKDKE
Test: affinity purification with mass spectrometry; biotin-ERD14 overexpressed in E. coli AVB101; cells cross-linked with 2 mM DSP at 30 °C for 7 min, without or with prior heat stress (50 °C × 15 min); after lysis pulled down with Streptavidin-MAG-Sepharose; SDS-PAGE, in-gel trypsin digest, LC-MS/MS; background from non-biotinylated ERD14

binding: binds
B1: citrate synthase (CS) (enzyme, UniProt P0ABH7 1-427)
chain: MADTKAKLTLNGDTAVELDVLKGTLGQDVIDIRTLGSKGVFTFDPGFTSTASCESKITFIDGDEGILLHRGFPIDQLATDSNYLEVCYILLNGEKPTQEQYDEFKTTVTRHTMIHEQITRLFHAFRRDSHPMAVMCGITGALAAFYHDSLDVNNPRHREIAAFRLLSKMPTMAAMCYKYSIGQPFVYPRNDLSYAGNFLNMMFSTPCEPYEVNPILERAMDRILILHADHEQNASTSTVRTAGSSGANPFACIAAGIASLWGPAHGGANEAALKMLEEISSVKHIPEFVRRAKDKNDSFRLMGFGHRVYKNYDPRATVMRETCHEVLKELGTKDDLLEVAMELENIALNDPYFIEKKLYPNVDFYSGIILKAMGIPSSMFTVIFAMARTVGWIAHWSEMHSDGMKIARPRQLYTGYEKRDFKSDIKR

Results are given in words; binding and its absence hold for the method and conditions named. In cells and extracts the contact can be indirect. A yes stands for co-enrichment or nearness to the bait. Other partners may have been found.
